From publication PMC12660564
Results are given in words; binding and its absence hold for the method and conditions named. In cells and extracts the contact can be indirect. Binding can be weak; no strength is given. Sequences can lack the tags named with a protein.

Chains of the proteins cited; added tags and fusions are not shown. Lines headed by an entry give the natural chain unless they say otherwise; changes in a name come on top.
UniProt P46734: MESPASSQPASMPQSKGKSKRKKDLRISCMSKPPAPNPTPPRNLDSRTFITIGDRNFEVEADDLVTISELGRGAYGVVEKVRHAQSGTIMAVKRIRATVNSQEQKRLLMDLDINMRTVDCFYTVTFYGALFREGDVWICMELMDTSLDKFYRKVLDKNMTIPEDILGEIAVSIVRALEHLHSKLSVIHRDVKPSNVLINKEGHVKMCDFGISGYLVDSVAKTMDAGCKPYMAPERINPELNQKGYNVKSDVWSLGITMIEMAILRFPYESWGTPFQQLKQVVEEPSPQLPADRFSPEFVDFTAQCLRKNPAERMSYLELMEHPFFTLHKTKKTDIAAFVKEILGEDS

Biological target: MYC-MKK3-EE (constitutively active, phospho-mimetic mutant) (UniProt P46734)
Assay: co-IP; HEK293T cells co-transfected with FLAG- and MYC-tagged constructs; lysates (50 mM Tris-HCl pH 7.4, 150 mM NaCl, 1 mM EDTA, 1% NP-40) immunoprecipitated with anti-FLAG beads or anti-MYC antibody/beads overnight at 4 °C, Western blot

B1: FLAG-USP13 (ubiquitin-specific protease 13, wild type) (enzyme, UniProt Q92995 1-863)
chain: MQRRGALFGMPGGSGGRKMAAGDIGELLVPHMPTIRVPRSGDRVYKNECAFSYDSPNSEGGLYVCMNTFLAFGREHVERHFRKTGQSVYMHLKRHVREKVRGASGGALPKRRNSKIFLDLDTDDDLNSDDYEYEDEAKLVIFPDHYEIALPNIEELPALVTIACDAVLSSKSPYRKQDPDTWENELPVSKYANNLTQLDNGVRIPPSGWKCARCDLRENLWLNLTDGSVLCGKWFFDSSGGNGHALEHYRDMGYPLAVKLGTITPDGADVYSFQEEEPVLDPHLAKHLAHFGIDMLHMHGTENGLQDNDIKLRVSEWEVIQESGTKLKPMYGPGYTGLKNLGNSCYLSSVMQAIFSIPEFQRAYVGNLPRIFDYSPLDPTQDFNTQMTKLGHGLLSGQYSKPPVKSELIEQVMKEEHKPQQNGISPRMFKAFVSKSHPEFSSNRQQDAQEFFLHLVNLVERNRIGSENPSDVFRFLVEERIQCCQTRKVRYTERVDYLMQLPVAMEAATNKDELIAYELTRREAEANRRPLPELVRAKIPFSACLQAFSEPENVDDFWSSALQAKSAGVKTSRFASFPEYLVVQIKKFTFGLDWVPKKFDVSIDMPDLLDINHLRARGLQPGEEELPDISPPIVIPDDSKDRLMNQLIDPSDIDESSVMQLAEMGFPLEACRKAVYFTGNMGAEVAFNWIIVHMEEPDFAEPLTMPGYGGAASAGASVFGASGLDNQPPEEIVAIITSMGFQRNQAIQALRATNNNLERALDWIFSHPEFEEDSDFVIEMENNANANIISEAKPEGPRVKDGSGTYELFAFISHMGTSTMSGHYICHIKKEGRWVIYNDHKVCASERPPKDLGYMYFYRRIPS
  binding: binds
